Reference: the supplement of paper PMC10849652
Some of the results follow.

The chains behind the UniProt entries cited, without tags or fusion partners. Where a name states a change or a piece, a line headed by the entry shows the natural chain unless it says otherwise.
UniProt Q9GZU7: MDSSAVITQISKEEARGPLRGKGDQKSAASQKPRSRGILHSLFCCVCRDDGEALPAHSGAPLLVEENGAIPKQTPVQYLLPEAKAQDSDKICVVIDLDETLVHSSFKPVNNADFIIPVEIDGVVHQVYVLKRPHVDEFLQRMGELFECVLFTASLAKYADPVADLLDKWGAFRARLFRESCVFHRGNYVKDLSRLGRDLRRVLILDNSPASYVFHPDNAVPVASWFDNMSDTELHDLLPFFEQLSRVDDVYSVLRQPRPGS
UniProt P01036: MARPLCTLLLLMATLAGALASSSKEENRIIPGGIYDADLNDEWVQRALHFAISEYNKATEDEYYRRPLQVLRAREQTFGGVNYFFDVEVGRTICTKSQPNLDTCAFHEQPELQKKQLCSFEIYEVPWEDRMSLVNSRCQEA
UniProt P48729: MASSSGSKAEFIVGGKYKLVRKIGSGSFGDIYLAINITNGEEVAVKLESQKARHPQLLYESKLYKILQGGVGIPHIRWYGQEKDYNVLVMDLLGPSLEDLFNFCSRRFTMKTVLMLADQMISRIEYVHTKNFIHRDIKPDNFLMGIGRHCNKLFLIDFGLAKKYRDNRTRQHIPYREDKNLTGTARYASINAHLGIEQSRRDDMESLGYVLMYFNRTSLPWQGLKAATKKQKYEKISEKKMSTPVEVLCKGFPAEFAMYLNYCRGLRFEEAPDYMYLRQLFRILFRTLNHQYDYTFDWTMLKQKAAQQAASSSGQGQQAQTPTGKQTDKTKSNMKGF
UniProt Q9BQA9: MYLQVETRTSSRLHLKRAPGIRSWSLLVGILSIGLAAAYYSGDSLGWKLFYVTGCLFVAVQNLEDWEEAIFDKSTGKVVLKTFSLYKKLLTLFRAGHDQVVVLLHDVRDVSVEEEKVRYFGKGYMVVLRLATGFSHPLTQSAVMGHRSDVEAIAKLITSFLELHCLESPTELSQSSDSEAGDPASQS
UniProt Q13948: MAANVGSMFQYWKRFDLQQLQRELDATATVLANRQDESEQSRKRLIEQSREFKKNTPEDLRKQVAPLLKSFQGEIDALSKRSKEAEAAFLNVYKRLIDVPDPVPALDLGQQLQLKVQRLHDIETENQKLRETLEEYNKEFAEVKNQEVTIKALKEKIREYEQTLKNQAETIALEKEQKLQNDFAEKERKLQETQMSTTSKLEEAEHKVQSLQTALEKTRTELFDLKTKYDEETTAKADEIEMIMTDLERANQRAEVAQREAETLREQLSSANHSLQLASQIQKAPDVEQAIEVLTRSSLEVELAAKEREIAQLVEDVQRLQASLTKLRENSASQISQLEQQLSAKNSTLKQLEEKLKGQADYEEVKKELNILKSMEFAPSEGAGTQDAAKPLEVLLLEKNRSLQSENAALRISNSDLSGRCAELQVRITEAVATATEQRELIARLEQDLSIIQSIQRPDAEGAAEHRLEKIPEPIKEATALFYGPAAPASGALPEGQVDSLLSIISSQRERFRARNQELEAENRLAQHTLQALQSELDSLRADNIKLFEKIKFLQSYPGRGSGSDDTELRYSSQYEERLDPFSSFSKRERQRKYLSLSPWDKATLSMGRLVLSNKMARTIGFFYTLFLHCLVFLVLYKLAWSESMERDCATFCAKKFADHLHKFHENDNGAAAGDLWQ
UniProt Q9NXE8: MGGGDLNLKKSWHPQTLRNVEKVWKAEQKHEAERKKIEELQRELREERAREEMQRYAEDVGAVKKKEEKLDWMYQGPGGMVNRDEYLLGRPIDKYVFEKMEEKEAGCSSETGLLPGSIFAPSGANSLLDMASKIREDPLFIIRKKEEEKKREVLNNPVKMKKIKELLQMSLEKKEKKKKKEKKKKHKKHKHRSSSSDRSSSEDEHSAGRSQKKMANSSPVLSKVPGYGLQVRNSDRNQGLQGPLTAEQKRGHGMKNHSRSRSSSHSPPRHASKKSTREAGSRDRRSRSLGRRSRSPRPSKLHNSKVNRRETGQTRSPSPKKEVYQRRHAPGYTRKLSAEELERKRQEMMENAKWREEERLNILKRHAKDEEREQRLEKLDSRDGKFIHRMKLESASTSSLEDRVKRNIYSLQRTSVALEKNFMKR
UniProt Q9UJA2: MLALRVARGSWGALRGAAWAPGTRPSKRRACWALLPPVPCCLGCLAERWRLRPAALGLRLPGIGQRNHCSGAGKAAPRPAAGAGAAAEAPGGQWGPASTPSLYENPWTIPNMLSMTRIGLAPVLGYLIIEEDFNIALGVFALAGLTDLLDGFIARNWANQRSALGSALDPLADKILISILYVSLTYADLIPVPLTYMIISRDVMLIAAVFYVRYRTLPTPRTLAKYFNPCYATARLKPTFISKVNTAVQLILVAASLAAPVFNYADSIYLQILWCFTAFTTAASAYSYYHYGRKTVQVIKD
UniProt Q16527: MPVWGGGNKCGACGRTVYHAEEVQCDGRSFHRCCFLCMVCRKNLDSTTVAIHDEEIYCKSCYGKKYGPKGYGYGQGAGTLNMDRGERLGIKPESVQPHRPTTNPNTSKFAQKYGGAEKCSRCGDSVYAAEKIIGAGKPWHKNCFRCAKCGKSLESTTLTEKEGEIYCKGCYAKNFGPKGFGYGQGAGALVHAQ
UniProt Q9H175: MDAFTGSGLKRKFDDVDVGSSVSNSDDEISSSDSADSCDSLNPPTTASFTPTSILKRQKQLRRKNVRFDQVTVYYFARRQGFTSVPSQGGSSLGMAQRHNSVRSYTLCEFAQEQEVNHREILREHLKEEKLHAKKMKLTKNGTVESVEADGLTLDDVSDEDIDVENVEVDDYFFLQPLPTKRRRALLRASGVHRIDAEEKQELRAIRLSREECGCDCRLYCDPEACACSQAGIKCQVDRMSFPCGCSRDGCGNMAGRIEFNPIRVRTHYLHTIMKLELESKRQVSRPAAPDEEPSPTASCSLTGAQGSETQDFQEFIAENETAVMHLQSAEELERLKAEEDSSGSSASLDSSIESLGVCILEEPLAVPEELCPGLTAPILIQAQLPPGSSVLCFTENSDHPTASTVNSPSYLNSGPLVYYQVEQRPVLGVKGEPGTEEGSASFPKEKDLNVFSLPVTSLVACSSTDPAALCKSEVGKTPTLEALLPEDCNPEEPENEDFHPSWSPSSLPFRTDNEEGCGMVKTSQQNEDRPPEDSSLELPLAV
UniProt O95476: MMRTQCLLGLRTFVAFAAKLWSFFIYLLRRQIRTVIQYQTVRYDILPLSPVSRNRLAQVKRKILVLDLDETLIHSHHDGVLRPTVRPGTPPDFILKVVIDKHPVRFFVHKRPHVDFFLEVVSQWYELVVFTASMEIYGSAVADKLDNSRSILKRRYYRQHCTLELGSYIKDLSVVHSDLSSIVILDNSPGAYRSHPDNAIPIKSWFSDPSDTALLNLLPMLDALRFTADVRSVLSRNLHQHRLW
UniProt Q14894: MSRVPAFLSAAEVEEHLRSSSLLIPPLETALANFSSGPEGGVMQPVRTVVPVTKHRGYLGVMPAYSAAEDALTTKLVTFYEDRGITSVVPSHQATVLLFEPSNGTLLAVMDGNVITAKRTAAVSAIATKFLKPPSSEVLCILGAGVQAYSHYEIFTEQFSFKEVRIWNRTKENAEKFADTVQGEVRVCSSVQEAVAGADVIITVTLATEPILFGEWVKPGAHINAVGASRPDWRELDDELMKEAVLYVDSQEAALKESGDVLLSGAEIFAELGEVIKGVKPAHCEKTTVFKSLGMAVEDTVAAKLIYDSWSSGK
UniProt Q16619: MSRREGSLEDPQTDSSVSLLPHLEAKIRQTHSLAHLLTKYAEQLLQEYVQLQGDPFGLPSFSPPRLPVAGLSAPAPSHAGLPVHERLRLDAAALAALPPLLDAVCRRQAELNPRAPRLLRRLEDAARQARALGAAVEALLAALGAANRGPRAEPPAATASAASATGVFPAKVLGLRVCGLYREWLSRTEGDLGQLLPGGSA
UniProt H7BZ55: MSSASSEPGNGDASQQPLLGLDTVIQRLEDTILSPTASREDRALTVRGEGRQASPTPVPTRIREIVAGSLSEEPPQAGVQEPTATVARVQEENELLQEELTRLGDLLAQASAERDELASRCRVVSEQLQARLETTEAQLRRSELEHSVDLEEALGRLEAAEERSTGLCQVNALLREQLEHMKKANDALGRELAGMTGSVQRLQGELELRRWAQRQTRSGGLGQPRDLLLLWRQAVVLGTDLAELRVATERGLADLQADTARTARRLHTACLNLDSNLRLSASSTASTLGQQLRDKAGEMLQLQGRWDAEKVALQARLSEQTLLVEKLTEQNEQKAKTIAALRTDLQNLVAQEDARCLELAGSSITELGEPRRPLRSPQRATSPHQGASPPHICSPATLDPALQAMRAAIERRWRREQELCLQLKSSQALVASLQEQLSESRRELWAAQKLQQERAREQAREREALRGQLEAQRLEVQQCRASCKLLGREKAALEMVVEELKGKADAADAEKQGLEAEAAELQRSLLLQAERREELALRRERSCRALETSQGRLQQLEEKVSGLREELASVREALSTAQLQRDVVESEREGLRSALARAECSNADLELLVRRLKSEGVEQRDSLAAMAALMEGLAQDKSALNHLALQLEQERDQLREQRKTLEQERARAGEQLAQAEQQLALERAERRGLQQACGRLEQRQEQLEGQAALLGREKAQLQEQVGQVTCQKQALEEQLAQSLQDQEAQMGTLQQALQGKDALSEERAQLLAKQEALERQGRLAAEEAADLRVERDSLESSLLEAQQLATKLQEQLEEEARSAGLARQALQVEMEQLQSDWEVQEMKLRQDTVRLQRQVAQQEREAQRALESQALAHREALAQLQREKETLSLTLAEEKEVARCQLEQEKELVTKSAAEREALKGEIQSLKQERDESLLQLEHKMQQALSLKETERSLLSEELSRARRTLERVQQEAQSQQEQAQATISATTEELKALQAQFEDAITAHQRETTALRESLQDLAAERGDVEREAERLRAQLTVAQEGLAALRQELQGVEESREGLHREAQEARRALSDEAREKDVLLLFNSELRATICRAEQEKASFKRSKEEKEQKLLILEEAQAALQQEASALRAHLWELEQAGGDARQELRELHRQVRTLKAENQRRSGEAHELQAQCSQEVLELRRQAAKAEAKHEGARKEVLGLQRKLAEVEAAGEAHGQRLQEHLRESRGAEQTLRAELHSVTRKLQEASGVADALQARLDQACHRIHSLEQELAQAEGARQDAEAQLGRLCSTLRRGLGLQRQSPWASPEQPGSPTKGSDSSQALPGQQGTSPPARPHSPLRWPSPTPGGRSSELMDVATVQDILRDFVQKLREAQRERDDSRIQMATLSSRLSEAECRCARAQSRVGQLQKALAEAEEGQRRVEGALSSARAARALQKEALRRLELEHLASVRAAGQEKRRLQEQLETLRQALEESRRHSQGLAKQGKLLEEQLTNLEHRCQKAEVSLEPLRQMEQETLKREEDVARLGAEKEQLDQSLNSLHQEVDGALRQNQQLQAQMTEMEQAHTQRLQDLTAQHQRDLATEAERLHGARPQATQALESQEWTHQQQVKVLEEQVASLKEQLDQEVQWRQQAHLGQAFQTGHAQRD
UniProt Q16526: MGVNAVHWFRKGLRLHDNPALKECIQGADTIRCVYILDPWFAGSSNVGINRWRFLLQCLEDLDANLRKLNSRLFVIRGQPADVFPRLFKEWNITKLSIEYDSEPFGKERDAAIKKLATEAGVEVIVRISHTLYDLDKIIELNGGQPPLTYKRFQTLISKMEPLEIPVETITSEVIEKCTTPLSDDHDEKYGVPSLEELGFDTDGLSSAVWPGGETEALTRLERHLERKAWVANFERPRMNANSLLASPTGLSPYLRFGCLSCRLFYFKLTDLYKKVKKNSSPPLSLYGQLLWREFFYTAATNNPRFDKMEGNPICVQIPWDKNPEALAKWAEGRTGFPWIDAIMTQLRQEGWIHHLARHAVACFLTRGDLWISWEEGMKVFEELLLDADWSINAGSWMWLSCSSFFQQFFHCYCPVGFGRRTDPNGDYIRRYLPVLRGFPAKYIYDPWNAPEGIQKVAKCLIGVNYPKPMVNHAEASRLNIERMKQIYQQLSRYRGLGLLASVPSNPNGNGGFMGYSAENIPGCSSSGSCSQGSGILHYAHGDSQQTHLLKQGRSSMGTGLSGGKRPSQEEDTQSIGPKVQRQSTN
UniProt Q9UBG3: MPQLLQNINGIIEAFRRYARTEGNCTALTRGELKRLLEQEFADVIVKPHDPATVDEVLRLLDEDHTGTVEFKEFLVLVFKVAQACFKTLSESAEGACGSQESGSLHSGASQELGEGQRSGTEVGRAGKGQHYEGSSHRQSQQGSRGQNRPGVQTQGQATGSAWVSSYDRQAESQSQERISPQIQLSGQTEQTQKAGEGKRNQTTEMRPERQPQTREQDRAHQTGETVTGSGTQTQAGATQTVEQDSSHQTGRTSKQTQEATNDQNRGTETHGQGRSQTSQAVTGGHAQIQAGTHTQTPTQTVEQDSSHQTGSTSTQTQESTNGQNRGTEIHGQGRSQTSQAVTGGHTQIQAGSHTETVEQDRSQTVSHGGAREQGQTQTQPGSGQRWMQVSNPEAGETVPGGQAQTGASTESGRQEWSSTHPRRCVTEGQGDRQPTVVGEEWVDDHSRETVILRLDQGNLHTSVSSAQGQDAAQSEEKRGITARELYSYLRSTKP

Assays:
Assay in all cases: log2 fold change, soluble protein after heating vs DMSO (PISA); higher = thermal stabilisation; K562 lysate, 10 uM; active = over 0.2 and 3.5 SD of the protein, either way, in both replicates (recomputed)
[1] = compound: CC1=C2C(=CC=C1)N=C(N(C2=O)C3=CC=CC=C3C)CN4C=NC5=C(N=CN=C54)N
Procedure, shortened: (§1)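 Quantification was by TMTpro 16plex LC-MS/MS with equalised channel sums, applied to the supernatant after 21,000xg for 90 min. Samples were crude K562 extract at 1 mg/mL protein in PBS pH 7.4 with 1 mM MgCl2, treated with 10 μM compound for 30 min, heated for 3 min across 48°C-58°C, pooled and brought to 0.5% NP-40 at 4°C. Values are log-two fold changes in thermal stability relative to solvent controls, from duplicates.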

[2] = compound: c1ccc([C@@H]2C[C@H]2NC2CCNCC2)cc1
Procedure, shortened: as §1

[3] = compound: Cc1sc2c(c1C)C(c1ccc(Cl)cc1)=N[C@@H](CC(=O)OC(C)(C)C)c1nnc(C)n1-2
Procedure, shortened: as §1

[4] = compound: C1=CC=C(C=C1)[C@H](COC2=CC3=C(C=C2)NC(=O)N3)NC(=O)C4=CC=CN(C4=O)CC5=CC(=C(C=C5)F)F
Procedure, shortened: as §1

[5] = compound: CC1=C(SC2=C1C(=N[C@H](C3=NN=C(N32)C)CC(=O)N)C4=CC=C(C=C4)Cl)C
Procedure, shortened: as §1

Q: Which log2 fold change [1] does the source give for CTRB2 (UniProt Q6GPI1) here?
A: inactive: 0.083

Q: What about the log2 fold change [2] of the same target?
A: inactive: -0.342

Q: Which log2 fold change [3] does the source give for CTDSP1 (UniProt Q9GZU7) here?
A: inactive: 0.098

Q: What about the log2 fold change [2] of the same target?
A: inactive: 0.049

Q: CTNNAL1 (UniProt Q9UBT7) was tested. Which log2 fold change [1] did it give?
A: inactive: 0.072

Q: And the log2 fold change [3]?
A: inactive: 0.065

Q: And the log2 fold change [2]?
A: inactive: 0.042

Q: Which log2 fold change [2] does the source give for CSF1 (UniProt P09603) here?
A: inactive: -0.007

Q: Which log2 fold change [4] does the source give for CST4 (UniProt P01036) here?
A: inactive: -0.086

Q: And the log2 fold change [5]?
A: inactive: 0.224

Q: And the log2 fold change [3]?
A: inactive: 0.012

Q: Which log2 fold change [2] does the source give for CROT isoform 3 (UniProt Q9UKG9) here?
A: inactive: 0.043

Q: With CSNK1A1 isoform 3 (UniProt P48729) as the target, how does the log2 fold change [3] read?
A: inactive: 0.021

Q: For CS (UniProt F8VU34), which log2 fold change [4] is on record?
A: inactive: -0.07

Q: And the log2 fold change [5]?
A: inactive: 0.148

Q: And the log2 fold change [3]?
A: inactive: 0.01

Q: For CST1 (UniProt P01037), which log2 fold change [2] is on record?
A: inactive: -0.099

Q: How did the log2 fold change [4] turn out when CYBC1 (UniProt Q9BQA9) was run?
A: inactive: 0.009

Q: And the log2 fold change [5]?
A: inactive: -0.043

Q: And the log2 fold change [3]?
A: inactive: -0.018

Q: And the log2 fold change [2]?
A: inactive: -0.115

Q: CSNK1G1 (UniProt Q9HCP0) was tested. Which log2 fold change [4] did it give?
A: inactive: 0.007

Q: What about the log2 fold change [5] of the same target?
A: inactive: -0.015

Q: And the log2 fold change [3]?
A: inactive: 0.004

Q: Which log2 fold change [1] does the source give for CRY2 (UniProt Q49AN0) here?
A: inactive: -0.181

Q: And the log2 fold change [2]?
A: inactive: -0.013

Q: Which log2 fold change [3] does the source give for CXXC5 (UniProt Q7LFL8) here?
A: inactive: 0.068

Q: With CRISP3 isoform 3 (UniProt P54108) as the target, how does the log2 fold change [3] read?
A: inactive: 0.457

Q: What about the log2 fold change [2] of the same target?
A: inactive: 0.267

Q: How did the log2 fold change [4] turn out when CSDE1 isoform 3 (UniProt O75534) was run?
A: inactive: -0.18

Q: And the log2 fold change [5]?
A: inactive: -0.098

Q: And the log2 fold change [2]?
A: inactive: 0.043

Q: Which log2 fold change [1] does the source give for CTIF (UniProt O43310) here?
A: inactive: 0.094

Q: For CUX1 isoform 2 (UniProt Q13948), which log2 fold change [1] is on record?
A: inactive: 0.03

Q: What about the log2 fold change [3] of the same target?
A: inactive: 0.075

Q: What about the log2 fold change [2] of the same target?
A: inactive: 0.193

Q: How did the log2 fold change [3] turn out when CTNNBIP1 (UniProt Q9NSA3) was run?
A: inactive: 0.072

Q: Which log2 fold change [4] does the source give for CWC25 (UniProt Q9NXE8) here?
A: inactive: -0.177

Q: What about the log2 fold change [5] of the same target?
A: inactive: -0.151

Q: And the log2 fold change [1]?
A: inactive: 0.111

Q: And the log2 fold change [2]?
A: inactive: -0.017

Q: CRLS1 (UniProt Q9UJA2) was tested. Which log2 fold change [4] did it give?
A: inactive: -0.349

Q: And the log2 fold change [5]?
A: inactive: 0.044

Q: What about the log2 fold change [2] of the same target?
A: inactive: 0.065

Q: With CTSS (UniProt P25774) as the target, how does the log2 fold change [3] read?
A: inactive: 0.058

Q: What about the log2 fold change [2] of the same target?
A: inactive: -0.006

Q: CSRP2 (UniProt Q16527) was tested. Which log2 fold change [4] did it give?
A: inactive: -0.031

Q: And the log2 fold change [5]?
A: inactive: -0.018

Q: What about the log2 fold change [2] of the same target?
A: inactive: 0.003

Q: With CSRNP2 (UniProt Q9H175) as the target, how does the log2 fold change [3] read?
A: inactive: 0.004

Q: Which log2 fold change [3] does the source give for CTDNEP1 (UniProt O95476) here?
A: inactive: -0.002

Q: With CUL9 (UniProt Q8IWT3) as the target, how does the log2 fold change [4] read?
A: inactive: -0.002

Q: And the log2 fold change [5]?
A: inactive: -0.151

Q: And the log2 fold change [2]?
A: inactive: 0.079

Q: CTTNBP2NL (UniProt Q9P2B4) was tested. Which log2 fold change [4] did it give?
A: inactive: 0.12

Q: What about the log2 fold change [5] of the same target?
A: inactive: 0

Q: What about the log2 fold change [1] of the same target?
A: inactive: 0.056

Q: And the log2 fold change [2]?
A: inactive: 0.039

Q: For CSGALNACT2 (UniProt Q8N6G5), which log2 fold change [3] is on record?
A: inactive: 0.022

Q: With CRYL1 (UniProt Q9Y2S2) as the target, how does the log2 fold change [1] read?
A: inactive: 0.136

Q: What about the log2 fold change [3] of the same target?
A: inactive: -0.044

Q: CRYM (UniProt Q14894) was tested. Which log2 fold change [4] did it give?
A: inactive: 0.035

Q: And the log2 fold change [5]?
A: inactive: -0.026

Q: What about the log2 fold change [1] of the same target?
A: inactive: 0.05

Q: What about the log2 fold change [2] of the same target?
A: inactive: -0.13

Q: For CTF1 (UniProt Q16619), which log2 fold change [1] is on record?
A: inactive: 0.404

Q: And the log2 fold change [3]?
A: inactive: -0.061

Q: What about the log2 fold change [2] of the same target?
A: inactive: 0.064

Q: Which results are given for CROCC2 (UniProt H7BZ55)?
A: log2 fold change [4]: inactive: -0.027; log2 fold change [5]: inactive: -0.118; log2 fold change [3]: inactive: 0.015

Q: For CRY1 (UniProt Q16526), which log2 fold change [2] is on record?
A: inactive: 0.016

Q: For CRAMP1 (UniProt Q96RY5), which log2 fold change [1] is on record?
A: inactive: -0.194

Q: And the log2 fold change [3]?
A: inactive: -0.048

Q: CRTC2 (UniProt H0YDQ8) was tested. Which log2 fold change [1] did it give?
A: inactive: -0.075

Q: For CRNN (UniProt Q9UBG3), which log2 fold change [1] is on record?
A: inactive: 0.071

Q: Which log2 fold change [2] does the source give for CTSF (UniProt Q9UBX1) here?
A: inactive: -0.064

Q: CYB5A (UniProt P00167) was tested. Which log2 fold change [4] did it give?
A: inactive: -0.121

Q: What about the log2 fold change [5] of the same target?
A: inactive: -0.108

Q: And the log2 fold change [3]?
A: inactive: 0.049

Q: What about the log2 fold change [2] of the same target?
A: inactive: -0.009
